Experimental data as given in PMC7036369.
These are yes or no findings as the source states them, for the method shown. A result given as binding can be weak or reduced; the word gives no strength. For part of these data: In cells and extracts the contact can be indirect. For part of these data: Tags and fused reporters may be left off the sequences shown.

These substances were tested against T1, soybean eIF4E1 of cultivar Tianlong 1 fused to YN (pEarleyGate202-YN) (soybean (Glycine max)) (UniProt C6ZJZ3) (assay: split reporter; BiFC (YFP halves): eIF4E1-YN and SMV-YC co-agroinfiltrated into leaves of 4-week-old N. benthamiana; confocal microscopy).
T1 sequence: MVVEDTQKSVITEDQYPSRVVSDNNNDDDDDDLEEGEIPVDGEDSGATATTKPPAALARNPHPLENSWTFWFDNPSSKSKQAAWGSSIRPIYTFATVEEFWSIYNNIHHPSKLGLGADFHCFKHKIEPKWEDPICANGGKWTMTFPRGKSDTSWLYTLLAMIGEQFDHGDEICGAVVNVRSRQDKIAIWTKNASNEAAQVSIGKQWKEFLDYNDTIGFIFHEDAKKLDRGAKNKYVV
With “soybean mosaic virus (SMV) strain SC3 VPg fused to YC (pEarleyGate201-YC)” the binding was “binds”. With “soybean mosaic virus (SMV) strain SC3 NIa-Pro fused to YC (pEarleyGate201-YC)” the binding was “binds”. With “soybean mosaic virus (SMV) strain SC3 NIb fused to YC (pEarleyGate201-YC)” the binding was “binds”.

The substances below were run against T2, soybean eIF4E1 (eukaryotic translation initiation factor 4E1) of cultivar Tianlong 1, bait in pBT3-STE (soybean (Glycine max)) (UniProt C6ZJZ3) (assay: two-hybrid; Matchmaker DUAL membrane system (Dualsystems Biotech); eIF4E1 as bait in pBT3-STE, SMV genes as preys in pPR3; S. cerevisiae NMY51; SD/−Leu/−Trp/−Ade/−His/+X-α-Gal, blue colonies positive).
T2 sequence: T1 sequence
For “soybean mosaic virus (SMV) strain SC3 viral genome-linked protein (VPg), prey in pPR3”, the binding was “binds”. For “soybean mosaic virus (SMV) strain SC3 coat protein (CP), prey in pPR3”, the binding was “no binding”. With “soybean mosaic virus (SMV) strain SC3 six kilodalton 1 protein (6K1), prey in pPR3” the binding was “no binding”. With “soybean mosaic virus (SMV) strain SC3 cylindrical inclusion protein (CI), prey in pPR3” the binding was “no binding”. In the case of “soybean mosaic virus (SMV) strain SC3 nuclear inclusion b (NIb), prey in pPR3”, the binding is reported as “binds”. In the case of “soybean mosaic virus (SMV) strain SC3 protein 3 (P3), prey in pPR3”, the binding is reported as “no binding”. For “soybean mosaic virus (SMV) strain SC3 six kilodalton 2 protein (6K2), prey in pPR3”, the binding was “no binding”. In the case of “soybean mosaic virus (SMV) strain SC3 helper component-proteinase (HC-Pro), prey in pPR3”, the binding is reported as “no binding”. With “soybean mosaic virus (SMV) strain SC3 protein 1 (P1), prey in pPR3” the binding was “no binding”.
